No constants are given. Whether binding was seen depends on the method and setting. In cells and extracts the contact can be indirect. Some results given as binding are weak or reduced against the parent protein; the word gives no strength. For some of these results: Where a sequence is shown, tags or fusion partners need not be part of it. Values belong to the molecule of their own block, whether it stands above or below them.
Legend:
[1] = biological target: T1, endogenous Mks1 of mIMCD3 cells (mouse (endogenous in mIMCD3)) (UniProt Q5SW45); assay: co-IP; anti-MKS1 immunoprecipitation from shScr and shUbe2e1 knockdown mIMCD3 cells, immunoblot for β-catenin
T1 sequence: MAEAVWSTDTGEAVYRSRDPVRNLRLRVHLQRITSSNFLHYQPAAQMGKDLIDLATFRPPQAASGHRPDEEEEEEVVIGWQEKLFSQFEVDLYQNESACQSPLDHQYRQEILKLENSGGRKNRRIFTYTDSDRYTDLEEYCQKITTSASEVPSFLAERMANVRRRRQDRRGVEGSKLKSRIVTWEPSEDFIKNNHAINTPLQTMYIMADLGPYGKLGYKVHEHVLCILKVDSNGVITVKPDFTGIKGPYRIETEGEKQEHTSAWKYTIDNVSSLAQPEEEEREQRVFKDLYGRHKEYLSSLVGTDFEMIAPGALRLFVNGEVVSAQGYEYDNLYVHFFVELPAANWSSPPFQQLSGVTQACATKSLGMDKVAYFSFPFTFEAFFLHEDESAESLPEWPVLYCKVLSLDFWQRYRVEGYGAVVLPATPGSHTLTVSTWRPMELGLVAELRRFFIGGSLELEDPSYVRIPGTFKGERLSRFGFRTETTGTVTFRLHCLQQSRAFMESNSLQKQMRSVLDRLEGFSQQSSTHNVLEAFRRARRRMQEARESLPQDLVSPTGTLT

Amino acid sequences for entries named in this document (tags omitted).
UniProt P51965: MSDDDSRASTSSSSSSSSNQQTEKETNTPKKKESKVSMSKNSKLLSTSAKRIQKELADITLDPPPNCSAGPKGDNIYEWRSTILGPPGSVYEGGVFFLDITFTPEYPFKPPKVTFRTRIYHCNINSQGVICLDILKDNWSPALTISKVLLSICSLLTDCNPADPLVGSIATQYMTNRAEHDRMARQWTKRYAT
UniProt Q02248: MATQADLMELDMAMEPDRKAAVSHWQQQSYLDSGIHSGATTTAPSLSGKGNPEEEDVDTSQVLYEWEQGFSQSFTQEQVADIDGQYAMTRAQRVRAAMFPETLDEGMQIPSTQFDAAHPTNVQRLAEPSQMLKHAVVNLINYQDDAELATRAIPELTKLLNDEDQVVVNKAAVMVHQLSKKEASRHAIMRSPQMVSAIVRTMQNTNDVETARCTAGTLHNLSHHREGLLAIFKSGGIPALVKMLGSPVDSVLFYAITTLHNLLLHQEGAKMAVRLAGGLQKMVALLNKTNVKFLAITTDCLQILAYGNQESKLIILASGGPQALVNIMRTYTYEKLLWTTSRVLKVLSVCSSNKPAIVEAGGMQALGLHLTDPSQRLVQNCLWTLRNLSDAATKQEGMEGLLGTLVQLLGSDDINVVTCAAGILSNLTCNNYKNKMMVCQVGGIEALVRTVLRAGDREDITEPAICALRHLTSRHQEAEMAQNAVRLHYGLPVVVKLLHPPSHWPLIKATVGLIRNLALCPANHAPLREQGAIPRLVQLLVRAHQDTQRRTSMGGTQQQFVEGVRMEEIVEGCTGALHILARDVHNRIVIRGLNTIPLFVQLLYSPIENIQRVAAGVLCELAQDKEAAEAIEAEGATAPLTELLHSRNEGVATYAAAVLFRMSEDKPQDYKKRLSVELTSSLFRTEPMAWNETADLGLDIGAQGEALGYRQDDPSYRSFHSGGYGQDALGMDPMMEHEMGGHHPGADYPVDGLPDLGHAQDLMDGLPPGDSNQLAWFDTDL

GST-UBE2E1 (human) = GST-UBE2E1 (human) (UniProt P51965); assay: pull-down; GST-UBE2E1 purified from bacterial extracts as bait; endogenous MKS1 from ARPE19 whole cell extract; only the target purified
[2] = biological target: endogenous UBE2E1 (cells not stated) (UniProt P51965); assay: co-IP; exogenously expressed cmyc-MKS1 precipitated with endogenous UBE2E1 by anti-UBE2E1; controls pre-immune serum and an irrelevant antibody; cells not given
[3] = biological target: T2, endogenous MKS1 (cells not stated) (UniProt Q9NXB0); assay: co-IP; endogenous proteins from whole cell extract precipitated by rabbit polyclonal anti-MKS1; controls pre-immune serum and an irrelevant antibody; cells not given
T2 sequence: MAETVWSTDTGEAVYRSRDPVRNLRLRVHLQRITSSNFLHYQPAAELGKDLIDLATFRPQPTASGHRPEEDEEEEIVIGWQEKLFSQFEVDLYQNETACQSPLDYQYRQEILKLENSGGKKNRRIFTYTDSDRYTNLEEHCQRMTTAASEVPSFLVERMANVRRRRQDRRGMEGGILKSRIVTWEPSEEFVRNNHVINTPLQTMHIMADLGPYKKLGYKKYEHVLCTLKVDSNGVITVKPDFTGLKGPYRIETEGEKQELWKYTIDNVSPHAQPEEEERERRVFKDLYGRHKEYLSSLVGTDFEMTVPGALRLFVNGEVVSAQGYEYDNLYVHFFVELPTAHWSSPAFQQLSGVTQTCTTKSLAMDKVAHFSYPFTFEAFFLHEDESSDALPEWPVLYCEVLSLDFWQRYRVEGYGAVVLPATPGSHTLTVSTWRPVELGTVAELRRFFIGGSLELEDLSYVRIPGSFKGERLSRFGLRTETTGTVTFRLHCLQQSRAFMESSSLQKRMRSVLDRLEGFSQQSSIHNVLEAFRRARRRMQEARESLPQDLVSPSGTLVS

binding [1]: binds
Molecule: endogenous β-catenin of mIMCD3 cells (from UniProt Q02248 1-781)

binding (GST-UBE2E1 (human)): binds
B1: endogenous MKS1 of ARPE19 cells (protein, UniProt Q9NXB0 1-559)
chain: MAETVWSTDTGEAVYRSRDPVRNLRLRVHLQRITSSNFLHYQPAAELGKDLIDLATFRPQPTASGHRPEEDEEEEIVIGWQEKLFSQFEVDLYQNETACQSPLDYQYRQEILKLENSGGKKNRRIFTYTDSDRYTNLEEHCQRMTTAASEVPSFLVERMANVRRRRQDRRGMEGGILKSRIVTWEPSEEFVRNNHVINTPLQTMHIMADLGPYKKLGYKKYEHVLCTLKVDSNGVITVKPDFTGLKGPYRIETEGEKQELWKYTIDNVSPHAQPEEEERERRVFKDLYGRHKEYLSSLVGTDFEMTVPGALRLFVNGEVVSAQGYEYDNLYVHFFVELPTAHWSSPAFQQLSGVTQTCTTKSLAMDKVAHFSYPFTFEAFFLHEDESSDALPEWPVLYCEVLSLDFWQRYRVEGYGAVVLPATPGSHTLTVSTWRPVELGTVAELRRFFIGGSLELEDLSYVRIPGSFKGERLSRFGLRTETTGTVTFRLHCLQQSRAFMESSSLQKRMRSVLDRLEGFSQQSSIHNVLEAFRRARRRMQEARESLPQDLVSPSGTLVS

binding [2]: binds
B2: cmyc-MKS1 (protein, UniProt Q9NXB0-1 1-559)
chain: MAETVWSTDTGEAVYRSRDPVRNLRLRVHLQRITSSNFLHYQPAAELGKDLIDLATFRPQPTASGHRPEEDEEEEIVIGWQEKLFSQFEVDLYQNETACQSPLDYQYRQEILKLENSGGKKNRRIFTYTDSDRYTNLEEHCQRMTTAASEVPSFLVERMANVRRRRQDRRGMEGGILKSRIVTWEPSEEFVRNNHVINTPLQTMHIMADLGPYKKLGYKKYEHVLCTLKVDSNGVITVKPDFTGLKGPYRIETEGEKQELWKYTIDNVSPHAQPEEEERERRVFKDLYGRHKEYLSSLVGTDFEMTVPGALRLFVNGEVVSAQGYEYDNLYVHFFVELPTAHWSSPAFQQLSGVTQTCTTKSLAMDKVAHFSYPFTFEAFFLHEDESSDALPEWPVLYCEVLSLDFWQRYRVEGYGAVVLPATPGSHTLTVSTWRPVELGTVAELRRFFIGGSLELEDLSYVRIPGSFKGERLSRFGLRTETTGTVTFRLHCLQQSRAFMESSSLQKRMRSVLDRLEGFSQQSSIHNVLEAFRRARRRMQEARESLPQDLVSPSGTLVS

binding [3]: binds
B3: endogenous RNF34 (30 and 40 kDa isoforms) (enzyme, UniProt Q969K3 1-372)
chain: MKAGATSMWASCCGLLNEVMGTGAVRGQQSAFAGATGPFRFTPNPEFSTYPPAATEGPNIVCKACGLSFSVFRKKHVCCDCKKDFCSVCSVLQENLRRCSTCHLLQETAFQRPQLMRLKVKDLRQYLILRNIPIDTCREKEDLVDLVLCHHGLGSEDDMDTSSLNSSRSQTSSFFTRSFFSNYTAPSATMSSFQGELMDGDQTSRSGVPAQVQSEITSANTEDDDDDDDEDDDDEEENAEDRNPGLSKERVRASLSDLSSLDDVEGMSVRQLKEILARNFVNYSGCCEKWELVEKVNRLYKENEENQKSYGERLQLQDEEDDSLCRICMDAVIDCVLLECGHMVTCTKCGKRMSECPICRQYVVRAVHVFKS

From publication PMC8880992
